# Measured data: PubChem BioAssay AID1259425 (University of Nebraska Medical Center, 2018)
# Purpose: 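Compare each knockdown with KSR1 silencing using changes in marker transcripts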 (primary screen)
# Cell system: HCT116 human colon cancer cells
# Reagent: siRNA pool against human genes, 50 nM siRNA
# Detection: 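After 50 nM siRNA pool, branched-DNA assay measures six marker transcripts per well, minus blank, normalised to the geometric mean of two housekeeping transcripts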
# Direction: BNIP3L mRNA: higher = more BNIP3L transcript after knockdown; NDRG1 mRNA: higher = more NDRG1 transcript after knockdown; BNIP3 mRNA: higher = more BNIP3 transcript after knockdown; ALDOC mRNA: higher = more ALDOC transcript after knockdown; ACSL5 mRNA: higher = more ACSL5 transcript after knockdown
# The deposit covers about 14,000 reagents; shown is a part drawn at random. Not given: the time to read-out.
gene,PubChem SID,"BNIP3L mRNA, set 1","NDRG1 mRNA, set 1","BNIP3 mRNA, set 1","ALDOC mRNA, set 1","ACSL5 mRNA, set 1"
GP1BB (GeneID 2812),SID363991738,0.127,0.267,0.208,0.00394,0.1
SPINT2 (GeneID 10653),SID364002010,0.0635,0.191,0.207,0.012,0.0753
CBX5 (GeneID 23468),SID363998065,0.085,0.0433,0.276,0.0296,0.169
DCT (GeneID 1638),SID363993135,0.065,0.195,0.325,0.0323,0.268
GRIK4 (GeneID 2900),SID363998988,0.147,0.717,0.247,0.0309,0.158
ZNF215 (GeneID 7762),SID363998374,0.0987,0.11,0.269,0.0248,0.0749
MTOR (GeneID 2475),SID363995900,0.185,0.07,0.305,0.0111,0.36
CAAP1 (GeneID 79886),SID364003093,0.144,0.126,0.277,0.0974,0.233
CMTM6 (GeneID 54918),SID364000537,0.0705,0.0901,0.229,0.0204,0.172
TEX11 (GeneID 56159),SID364003566,0.368,0.671,0.476,0.134,0.585
PIGZ (GeneID 80235),SID364003288,0.198,0.394,0.467,0.0717,0.248
NFKBIA (GeneID 4792),SID364001726,0.14,0.22,0.267,0.0148,0.186
CIAO2B (GeneID 51647),SID363999836,0.127,0.133,0.363,0.0277,0.171
LTBP3 (GeneID 4054),SID364001987,0.118,0.127,0.384,0.0125,0.118
H2BC14 (GeneID 8342),SID363994609,0.109,0.335,0.519,0.0593,0.325
KRT33A (GeneID 3883),SID363995148,0.17,0.106,0.366,0.0213,0.302
CYP2C18 (GeneID 1562),SID363992063,0.107,0.287,0.32,0.029,0.256
CREB1 (GeneID 1385),SID364004542,0.0482,0.0307,0.14,0.00142,0.0633
SEMA3E (GeneID 9723),SID364005579,0.122,0.155,0.32,0.0343,0.129
MRM3 (GeneID 55178),SID364000822,0.0965,0.187,0.305,0.0408,0.119
ISL1 (GeneID 3670),SID363993403,0.0721,0.206,0.273,0.00899,0.114
LMBRD1 (GeneID 55788),SID364001012,0.262,0.237,0.357,0.0293,0.153
ASTN2 (GeneID 23245),SID363998546,0.188,0.767,0.393,0.0415,0.408
WWC2 (GeneID 80014),SID364003181,0.225,1.14,0.535,0.0312,0.685
PRKAG3 (GeneID 53632),SID364000309,0.216,0.625,0.348,0.0199,0.508
RNF24 (GeneID 11237),SID363997915,0.115,0.0994,0.321,0.0166,0.11
PREP (GeneID 5550),SID363993884,0.0925,0.344,0.303,0.0289,0.125
LGALSL (GeneID 29094),SID363998638,0.0604,0.235,0.212,0.0242,0.201
UTS2 (GeneID 10911),SID363997555,0.0363,0.236,0.131,0.0162,0.218
MAPK9 (GeneID 5601),SID363993910,0.0837,0.0899,0.189,0.0114,0.0504
ASL (GeneID 435),SID363991387,0.108,0.133,0.315,0.0263,0.103
ZNF43 (GeneID 7594),SID363994527,0.0834,0.134,0.403,0.00818,0.227
RTN4R (GeneID 65078),SID364002611,0.033,0.329,0.246,0.0111,0.154
HCFC2 (GeneID 29915),SID363998432,0.0616,0.139,0.235,0.00135,0.358
TRIP12 (GeneID 9320),SID363995237,0.103,0.0834,0.277,0.0261,0.159
MMACHC (GeneID 25974),SID364005061,0.2,0.345,0.503,0.0196,0.279
BIRC2 (GeneID 329),SID363992457,0.0834,0.107,0.308,0.0221,0.0812
ALPL (GeneID 249),SID363991801,0.0447,0.0786,0.34,0.0485,0.278
SDF4 (GeneID 51150),SID363999928,0.083,0.0854,0.28,0.0161,0.0983
DUX4L8 (GeneID 26583),SID363998092,0.0545,0.224,0.19,-0.00151,0.262
SRSF3 (GeneID 6428),SID363994166,0.232,0.193,0.299,0.0512,0.104
MAP3K6 (GeneID 9064),SID363995636,0.116,0.138,0.284,0.00943,0.309
DMXL1 (GeneID 1657),SID363996410,0.165,0.0991,0.204,0.0193,0.0635
PRICKLE4 (GeneID 29964),SID363998501,0.17,0.231,0.373,0.014,0.064
GALNT16 (GeneID 57452),SID364005052,0.12,0.259,0.253,0.0456,0.302
NDOR1 (GeneID 27158),SID363998850,0.0734,0.404,0.41,0.0101,0.176
CKAP5 (GeneID 9793),SID363999085,0.178,0.266,0.4,0.029,0.122
MRPL57 (GeneID 78988),SID364002688,0.0835,0.172,0.326,0.0138,0.157
DEGS1 (GeneID 8560),SID363994751,0.0583,0.378,0.282,0.00115,0.21
ZNF507 (GeneID 22847),SID364005542,0.0699,0.217,0.272,0.0145,0.146
